Test results from PubChem BioAssay AID529 (NMMLSC, 2006).
Hit rate of the full screen: of about 24,000 compounds, about 50 (0.2%) were called active. The shares of active, inactive and inconclusive entries below differ from those in the screen.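 The calls were made as follows: active = inhibition above 50%; inconclusive = compound itself fluorescent, judged against control cell fluorescence; inactive = the rest.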

Sequences of proteins named here, by UniProt entry; tags and fusion partners are left off.
UniProt P13612, whole entry, looked up: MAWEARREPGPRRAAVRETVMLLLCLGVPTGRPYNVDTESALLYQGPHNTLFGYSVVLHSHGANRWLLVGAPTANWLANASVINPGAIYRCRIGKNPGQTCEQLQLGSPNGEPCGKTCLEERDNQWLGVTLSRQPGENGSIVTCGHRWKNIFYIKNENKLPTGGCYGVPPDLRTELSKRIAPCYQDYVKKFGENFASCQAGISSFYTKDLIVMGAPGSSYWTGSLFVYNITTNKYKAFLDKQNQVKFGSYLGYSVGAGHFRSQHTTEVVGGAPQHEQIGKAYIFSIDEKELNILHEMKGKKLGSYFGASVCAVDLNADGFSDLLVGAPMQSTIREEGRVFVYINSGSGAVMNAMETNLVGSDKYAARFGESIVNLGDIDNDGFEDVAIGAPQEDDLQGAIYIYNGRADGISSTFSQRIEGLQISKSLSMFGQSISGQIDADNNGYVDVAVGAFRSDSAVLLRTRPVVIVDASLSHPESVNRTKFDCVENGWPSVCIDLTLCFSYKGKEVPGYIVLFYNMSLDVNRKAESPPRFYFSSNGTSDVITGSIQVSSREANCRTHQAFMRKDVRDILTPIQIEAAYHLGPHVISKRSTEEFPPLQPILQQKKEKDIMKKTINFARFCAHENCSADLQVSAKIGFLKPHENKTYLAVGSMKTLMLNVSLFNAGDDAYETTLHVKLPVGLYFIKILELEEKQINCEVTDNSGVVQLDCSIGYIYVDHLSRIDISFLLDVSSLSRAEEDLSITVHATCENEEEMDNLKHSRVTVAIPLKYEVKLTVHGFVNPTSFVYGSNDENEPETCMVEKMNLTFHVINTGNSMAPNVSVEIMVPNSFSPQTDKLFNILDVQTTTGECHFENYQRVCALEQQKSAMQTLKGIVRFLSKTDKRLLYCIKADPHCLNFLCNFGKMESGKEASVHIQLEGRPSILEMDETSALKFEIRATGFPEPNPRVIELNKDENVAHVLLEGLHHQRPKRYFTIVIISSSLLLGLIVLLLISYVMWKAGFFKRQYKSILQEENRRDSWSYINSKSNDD

Each compound was assayed against Integrin alpha-4 (Homo sapiens) (UniProt P13612) (assay: blockers of LDV-FITC ligand binding on VLA-4 – Jurkat cells, Mn2+ activated, primary screen (AID 529;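 as to inhibition: 0% = Mn2+ stimulated cells lacking compound and 100% = ligand binding without Mn2+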)). Conditions: LDV-FITC binding with Mn2+, flow cytometry; hits give high values, screened at 10 µM (by protocol), 100% = Mn2+-driven binding gain fully reversed unless noted.

SMILES | inhibition
Cc1cc(NCCN(C)C)n2nc(-c3cccs3)cc2n1 | inconclusive
Cn1c(=O)c(=O)n(C)c2cc(S(=O)(=O)N3CCc4ccccc43)ccc21 | inconclusive
O=C(NCCN1CCCC1)c1cc(-c2ccncc2)nc2ccc(S(=O)(=O)N3CCOCC3)cc12 | inactive: -7%
Brc1cccc(-c2nnc(SCc3ccon3)n2-c2ccccc2)c1 | inconclusive
O=C(c1ccccc1F)N1CCN(Cc2cccc(Cl)c2)CC1 | inactive: -5.5%
S=c1nc2ccccc2c2nc(-c3ccccc3)[nH]n12 | inconclusive
Oc1[nH]c2ccccc2c1C=NCC1CCCO1 (stereo not given) | inactive: 8%
CC(C)C(=O)N1c2ccccc2NC2=C(C(=O)CCC2)C1c1ccc(N(C)C)cc1 (stereo not given) | inconclusive
CCOC(=O)N1CCC(NC(=O)C2CCN(Cc3nc(-c4ccc(CC)cc4)oc3C)CC2)CC1 | inconclusive
COc1ccc(Br)cc1C1CC(=O)N2CN(C)CSC2=C1C#N (stereo not given) | inconclusive
Cc1cccc2[nH]c3c(N4CCC5(CC4)OCCO5)ncnc3c12 | inconclusive
O=C(c1cc2c(=O)oc3ccccc3c2s1)N1CCOCC1 | inconclusive
COc1cccc(-c2nc(CS(=O)CC(=O)NCc3ccc4c(c3)OCO4)c(C)o2)c1 (stereo not given) | inconclusive
CCN(C(=O)c1cn(C)c(=O)c2cc(OC)c(OC)cc12)c1cc(C)ccc1C | inactive: -13%
COc1ccc(NC(=O)C2CCN(S(=O)(=O)c3cccc4cccnc34)CC2)cc1OC | inconclusive
COc1ccc(/C(O)=C2/C(=O)C(=O)N(CCCN(C)C)C2c2ccco2)cc1Cl (stereo not given) | inactive: -13.5%
O=C(NC1CCCCC1)c1nc2c(nnn2Cc2ccccc2Cl)c(=O)[nH]1 | inactive: 2%
CCN(CC)c1nc(C#N)nc(N(CC)CC)n1 | inconclusive
Cc1ccc(Cn2c3ccccc3c3cn[nH]c(=O)c32)cc1 | inconclusive
CCOC(=O)CSc1nnc(CNC(=O)c2cc(OC)c(OC)c(OC)c2)n1C | inactive: 15%
Cc1oc(-c2cccc(Cl)c2)nc1CN1CCC(C(=O)NCC2CCCO2)CC1 (stereo not given) | inconclusive
CN1CCN(CC(O)COc2ccc(OCC(O)CN3CCN(C)CC3)cc2)CC1 (stereo not given) | inconclusive
Cc1cc(Nc2cccc(C)c2C)n2ncnc2n1 | inconclusive
CCOC(=O)C(C(=O)OCC)C(C)C#CCN1CCCCC1 (stereo not given) | inactive: -15.5%

SMILES | inhibition
CC(=O)Nc1ccc(NS(=O)(=O)c2cc(C)sc2C)cc1 | inconclusive
COc1ccccc1CNC(=O)Cn1cc2c(n1)CCCC2 | inactive: -2% [hits give high values, 100% = Mn2+-driven binding gain fully reversed, screened at 10 µM (by protocol)]
CCOC(=O)N1CCN(C(=O)c2ccc3c(=O)n(CCc4ccccc4)c(=S)[nH]c3c2)CC1 | inconclusive
COc1cccc(-c2cc(C(=O)Nc3cccc(O)c3)no2)c1 | inconclusive
CCn1cc(C(=O)NCc2ccc3c(c2)OCO3)c2cc(OC)c(OC)cc2c1=O | inconclusive
Cn1cccc1Cc1nnc(SCC(=O)N2CCN(c3ccccc3)CC2)n1-c1ccc(F)cc1 | inconclusive
Cc1ccc(Nc2cc(C)nc3nc(C)nn23)c(C)c1 | inconclusive
O=C1C2CCCN2C(c2ccc(F)cc2)N1c1ccc(Cl)cc1 (stereo not given) | inconclusive
O=C(NCC1CCCO1)c1coc2nc3ccccc3nc12 (stereo not given) | inconclusive
COc1cc2c(C(=O)NCc3ccc(C)o3)cn(CC(C)C)c(=O)c2cc1OC | inconclusive
C=CCNC(=O)CN(c1cccc(Br)c1)S(C)(=O)=O | inactive: -2.5%
Cc1cc(NC(=O)CCCN2C(=O)c3cccnc3C2=O)no1 | inconclusive
CCN(CCCNC(=O)CCNC(=O)Cn1cnc2ccccc2c1=O)c1ccccc1 | inconclusive
COC(=O)c1ccc(CSc2ncnc3ccccc23)o1 | inconclusive
CCOc1ccc(N(CCC#N)S(=O)(=O)c2ccc(OC)cc2)cc1 | inconclusive
Cc1cc(=S)[nH]c2ccccc12 | inconclusive
COc1ccc(CCNC(=O)c2ccc3c(=O)n(Cc4ccco4)c(=S)[nH]c3c2)cc1OC | inconclusive
CC(=O)N1c2c(cc(Br)cc2S(=O)(=O)N2CCOCC2)CC1C (stereo not given) | inconclusive
CCOC(=O)c1ccc(NS(=O)(=O)c2cnc[nH]2)cc1 | inactive: 14%
COC(=O)c1ccc(Cn2cnc3c(cnn3-c3ccc(Cl)cc3)c2=O)o1 | inactive: -3%
O=C1c2ccncc2C(=O)N1C1CCCCC1 | inactive: 3% [hits give high values, 100% = Mn2+-driven binding gain fully reversed, screened at 10 µM (by protocol)]
CCOc1ccccc1NC(=O)Cn1nnc(C(=O)Nc2ccc(C)cc2)c1N | inconclusive
O=C(NCc1ccco1)c1csc(Nc2ccccc2Cl)n1 | inconclusive
CC(C(=O)c1ccccc1)n1cnc2ccccc2c1=O (stereo not given) | inactive: -16.5%

SMILES | inhibition
COc1cccc(-c2cc(C(=O)Nc3c(C)nn(Cc4ccccc4C)c3C)no2)c1 | inconclusive
COC(=O)C(C)NS(=O)(=O)c1ccc(NC(C)=O)cc1 (stereo not given) | inconclusive
Cc1oc(-c2cccc(Cl)c2)nc1CN1CCCC(C(=O)NC(C)c2ccc3c(c2)OCCO3)C1 (stereo not given) | inactive: 2%
Cc1ccccc1CSc1ncc(C#N)c(N)n1 | inconclusive
COc1ccc(S(=O)(=O)NCC(c2cccnc2)N2CCN(c3ccccc3)CC2)cc1C (stereo not given) | inconclusive
COc1ccc(NC(=O)CSc2nc3ccccc3c(=O)n2CCC(=O)N2CCCCC2)cc1 | inconclusive
Cc1ccc2c(c1)c1c3n2CCN(C(=O)C2CC2)C3CCC1 (stereo not given) | inconclusive
CCOc1ccc(C(c2nnnn2Cc2ccccc2)N2CCN(C(=O)c3ccco3)CC2)cc1 (stereo not given) | inconclusive
CC(C)c1c(C#N)c(N)nc(SCC(=O)c2cc3ccccc3oc2=O)c1C#N | inconclusive
O=C(NCC1COc2ccccc2O1)C1CCCN(S(=O)(=O)c2cccc3nsnc23)C1 (stereo not given) | inconclusive
COCCNC(=O)C(c1ccc(O)cc1)N(Cc1ccco1)C(=O)CCC(=O)Nc1nccs1 (stereo not given) | inconclusive
COc1ccc(CCn2c(SCC(=O)Nc3cc(C)on3)nc3ccccc3c2=O)cc1OC | inconclusive
COc1ccc2cc(CCNC(=O)C3CC3)c(=O)[nH]c2c1 | inconclusive
O=C(CN1CCN(CCOCCO)CC1)N1c2ccccc2Sc2ccc(Cl)cc21 | inactive: 14%
COC(=O)CSCc1nc2ccccc2[nH]c1=O | inconclusive
COc1cc2c(cc1OC)CN(C(=O)CSc1nnc3scc(-c4ccccc4)n13)CC2 | inactive: -3.7%
CCC(=O)N1CCNC(=O)C1CC(=O)Nc1ccc(C)c(Cl)c1 (stereo not given) | active: 52%
CC1CCC(NC(=O)Cn2cc3c(n2)CCCC3)CC1 (stereo not given) | inconclusive
CSc1cccc(NC(=O)CSc2nc3ccccc3o2)c1 | inactive: 24%
COc1ccccc1-c1cc(C(F)(F)F)nc(S(=O)(=O)CCCC(=O)N2CCCCC2C)n1 (stereo not given) | inconclusive
O=C(O)c1ccccc1NCc1ccncc1 | inconclusive
COc1ccc(C2CC(c3ccccc3)Nc3ncnn32)cc1 (stereo not given) | inconclusive
O=C(Nn1nnnc1Nc1ccccc1)C12CC3CC(CC(C3)C1)C2 | inactive: 12%
O=C(CSc1nnc(Cn2c(=O)sc3ccccc32)n1-c1ccccc1)Nc1nccs1 | inactive: -0.3%

Some values from the list.
Entry for `COc1cc2c(cc1OC)CN(C(=O)CSc1nnc3scc(-c4ccccc4)n13)CC2` under inhibition: inactive: -3.7%
Entry for `O=C(c1ccccc1F)N1CCN(Cc2cccc(Cl)c2)CC1` under inhibition: inactive: -5.5%
Entry for `COC(=O)c1ccc(Cn2cnc3c(cnn3-c3ccc(Cl)cc3)c2=O)o1` under inhibition: inactive: -3%
Entry for `CC(C)C(=O)N1c2ccccc2NC2=C(C(=O)CCC2)C1c1ccc(N(C)C)cc1` (stereo not given) under inhibition: inconclusive

Additional records follow.

SMILES | inhibition
Cc1c2c(n3c(nc4ccccc43)c1C#N)N(Cc1ccccn1)CC2 | inactive: 5%
O=C(NCc1ccco1)c1cc(-c2ccccc2)c(N2CCOCC2)s1 | inconclusive
Cn1c(C(=O)N2CCN(c3ccc(Cl)cc3)CC2)cc2c(=O)[nH]c3ccccc3c21 | inconclusive
CCc1ccccc1NC(=O)c1nnn(CC(=O)Nc2cccc(C)c2C)c1N | inconclusive
Cc1oc(-c2ccccc2F)nc1CN1CCC(C(=O)NCc2ccco2)CC1 | inconclusive
O=C1OC(c2ccccc2)=C/C1=C\N1CCOCC1 | inconclusive
O=C1CCc2cc(S(=O)(=O)N3CCC(C(=O)NC4CCCc5ccccc54)CC3)ccc2N1 (stereo not given) | inconclusive
CCCCN(C)c1nc(-c2ccco2)c2c(c1C#N)CC(C)(C)OC2 | inconclusive
O=C(NCCCN1CCN(c2ccc(F)cc2)CC1)c1cccc(N2CCCC2=O)c1 | inactive: -2%
COCc1cc(C)nc2sc(C(=O)Nc3nccs3)c(N)c12 | inconclusive
CCCCCOC(=O)C1=C(C)N(C)C(=O)NC1c1cc(Br)c(O)c(OC)c1 (stereo not given) | inactive: -8.5%
COc1ccccc1Cn1nnc2c(=O)[nH]c(C3CCN(C(=O)c4ccc(C)cc4)CC3)nc21 | inconclusive
Cc1cc2ccccc2c(=O)n1CC(=O)N1CCN(c2cccc(Cl)c2)CC1 | inconclusive
O=C(NCCN1CCN(c2ccccc2)CC1)c1cccn2c(=O)c3ccccc3nc12 | inconclusive
Nc1ccc2nc(-c3ccc(Cl)cc3)[nH]c2c1 | inconclusive
O=C(NCCN1CCCC1)C1(S(=O)(=O)c2ccc(Cl)cc2)CC1 | inconclusive
O=C(O)C1CCC(=O)N1Cc1ccccc1Cl (stereo not given) | inactive: -2%
CCCCCSc1nnc(C)c(=O)[nH]1 | inconclusive
CCOc1ccc(OCC)c(NC(=O)CCn2cccc2)c1 | inactive: 20%
CC(C)CCN1C(=O)CCC1(C)C(=O)NC1CCCCCC1 (stereo not given) | inconclusive
Cn1c(=O)c2c(ncn2CC(O)CNc2ccc(Cl)cc2)n(C)c1=O (stereo not given) | inconclusive
COc1ccc2cc3cc(C(=O)NCc4ccc5c(c4)OCO5)oc3nc2c1 | inconclusive
CCOc1ccc(Cn2nnc(C(=O)NCc3ccccc3)c2N)cc1 | inactive: -1% [hits give high values, 100% = Mn2+-driven binding gain fully reversed, screened at 10 µM (by protocol)]
